# Reference: PubChem BioAssay AID328 (DTP/NCI, 2004)
# The list shows only some results of the screen, not a fair sample: it gathers tests that were run many times, whatever their T/C, doses with no T/C, and many T/C values between a quarter and a half above the control. Further doses and runs are listed elsewhere. T/C: endpoint of the treated group in % of that of the vehicle group. Some entries give survivors of the animals treated and no T/C: the source holds a T/C of zero for them, seemingly a mark for toxic or unscored doses. Some doses without a T/C left all or most animals alive at the check, yet need not have been tolerated: survival well below the control is almost never listed, so the zero probably covers shortened survival too. Survivors were counted at the toxicity check, usually on the fifth day, unless a day is given; later deaths do not show. Schedules are NCI's codes, taken here to give the interval after Q, in days (D) or hours (H), and the number of doses after X. Some doses were run more than once; their values stand side by side, smallest first. Where survival is the endpoint, the PubChem record calls one and a half times the control and up active, and a quarter to a half above the control has no call in these data; cut-offs in other NCI protocols can differ. Some T/C values are followed by the survivors on the day toxicity was checked, most often the fifth; where none is given, no animal had died by that day. Non-standard residues stand in square brackets, D forms with d. Residues, ends and D or L forms follow the SMILES beside them. ξ: configuration not given here. *: point of attachment. Cbz = O=C(OCc1ccccc1)*; ξK = NCCCCC(N)C(=O)O
# System: BDF1 mice, P388 leukemia ip, median survival T/C
# Assay: NCI In Vivo Anticancer Drug Screen. Data for tumor model P388 Leukemia (intraperitoneal) in B6D2F1 (BDF1) mice
# Conditions: T/C endpoint: median survival time, higher T/C = longer survival
# How it was run: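 Each value expresses how treatment altered survival: treated-mouse outcome over vehicle-mouse outcome, both groups bearing the transplanted tumour.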
# [1] = dose: 100.0 mg/kg/injection, schedule: Q01DX009 (ip), vehicle: Klucel (hydroxypropylcellulose) (HPC)
# [2] = dose: 200.0 mg/kg/injection, schedule: Q01DX009 (ip), vehicle: Klucel (hydroxypropylcellulose) (HPC)
# [3] = dose: 12.5 mg/kg/injection, schedule: Q01DX009 (ip), vehicle: Klucel (hydroxypropylcellulose) (HPC)
# [4] = dose: 18.0 mg/kg/injection, schedule: Q04DX003 (ip), vehicle: Klucel (hydroxypropylcellulose) (HPC)
# [5] = dose: 50.0 mg/kg/injection, schedule: Q01DX009 (ip), vehicle: saline with Tween-80
# [6] = dose: 100.0 mg/kg/injection, schedule: Q01DX009 (ip), vehicle: saline with Tween-80
# [7] = dose: 100.0 mg/kg/injection, schedule: Q04DX003 (ip), vehicle: saline with Tween-80
# [8] = dose: 400.0 mg/kg/injection, schedule: Q04DX003 (ip), vehicle: saline with Tween-80
# [9] = dose: 200.0 mg/kg/injection, schedule: Q01DX009 (ip), vehicle: saline with Tween-80
# [10] = dose: 400.0 mg/kg/injection, schedule: Q01DX009 (ip), vehicle: saline with Tween-80
smiles,measurement,setting,value
CC(=O)O[C@H]1CC[C@H]2[C@@H]3CC[C@H]4CC=C(C#N)C[C@]4(C)[C@H]3CC[C@]12C,survivor count,"dose: 3.0 mg/kg/injection, schedule: Q01DX009 (ip), vehicle: Klucel (hydroxypropylcellulose) (HPC)",6 of 6
same,survivor count,"dose: 12.0 mg/kg/injection, schedule: Q01DX009 (ip), vehicle: Klucel (hydroxypropylcellulose) (HPC)",6 of 6
same,survivor count,"dose: 50.0 mg/kg/injection, schedule: Q01DX009 (ip), vehicle: Klucel (hydroxypropylcellulose) (HPC)",5 of 6
same,survivor count,[1],6 of 6
same,survivor count,[2],6 of 6
same,survivor count,"dose: 400.0 mg/kg/injection, schedule: Q01DX009 (ip), vehicle: Klucel (hydroxypropylcellulose) (HPC)",5 of 6 and 6 of 6
CCCCCCCCCCCCCCCCCSCCCCCSCCCCCCCCCCCCCCCCC,survivor count,"dose: 200.0 mg/kg/injection, schedule: Q01DX001 (ip), vehicle: saline with Tween-80",6 of 6
[O-]/C(CCl)=N\[n+]1c2c(nc3ccccc31)-c1cccc3cccc-2c13,T/C,"dose: 50.0 mg/kg/injection, schedule: Q01DX001 (ip), vehicle: Klucel (hydroxypropylcellulose) (HPC)",135 % of control
C=C1C(=O)O[C@H]2[C@H]1[C@H](OC(=O)/C(C)=C\C)C[C@]1(CO1)[C@@H]1[C@H](OC(C)=O)C=C(C)[C@]21O,survivor count,"dose: 80.0 mg/kg/injection, schedule: Q01DX010 (ip), vehicle: steroid suspending solution",6 of 6
O=C(CCC(=O)[O][Sn]([c]1ccccc1)([c]1ccccc1)[c]1ccccc1)[O][Sn]([c]1ccccc1)([c]1ccccc1)[c]1ccccc1,survivor count,"dose: 6.25 mg/kg/injection, schedule: Q01DX009 (ip), vehicle: Klucel (hydroxypropylcellulose) (HPC)",2 of 6
same,survivor count,[3],0 of 6
same,T/C,[4],127 % of control
same,survivor count,[4],5 of 6
same,survivor count,"dose: 28.0 mg/kg/injection, schedule: Q04DX003 (ip), vehicle: Klucel (hydroxypropylcellulose) (HPC)",3 of 6
same,survivor count,"dose: 40.0 mg/kg/injection, schedule: Q04DX003 (ip), vehicle: Klucel (hydroxypropylcellulose) (HPC)",3 of 6
COc1ccc(N/N=C(\C)C2(O)Cc3c(O)c4c(c(O)c3C(OC3CC(N)C(O)C(C)O3)C2)C(=O)c2c(OC)cccc2C4=O)cc1 (stereo not drawn),T/C,"dose: 2.88 mg/kg/injection, schedule: Q04DX003 (ip), vehicle: water",137 % of control
same,T/C,"dose: 8.0 mg/kg/injection, schedule: Q04DX003 (ip), vehicle: water",141 % of control
NC(=O)C(c1ccccc1)N1CCCCC1 (stereo not drawn),survivor count,"dose: 25.0 mg/kg/injection, schedule: Q01DX009 (ip), vehicle: Klucel (hydroxypropylcellulose) (HPC)",6 of 6
same,survivor count,[1],5 of 6
Nc1ccc2c(-c3ccc([N+](=O)[O-])cc3)cc(=O)[nH]c2n1,survivor count,"dose: 100.0 mg/kg/injection, schedule: Q04DX003 (ip), vehicle: saline",6 of 6
CC[N+](CC)(CC)CC.N#C/C([SH2+])=C(/[SH2+])C#N.N#C/C([SH2+])=C(/[SH2+])C#N.[Fe+2],survivor count,"dose: 9.2 mg/kg/injection, schedule: Q01DX009 (ip), vehicle: saline with Tween-80",3 of 6
same,survivor count,"dose: 14.0 mg/kg/injection, schedule: Q01DX001 (ip), vehicle: saline with Tween-80",3 of 6
same,survivor count,"dose: 14.0 mg/kg/injection, schedule: Q01DX009 (ip), vehicle: saline with Tween-80",1 of 6
same,survivor count,"dose: 21.0 mg/kg/injection, schedule: Q01DX009 (ip), vehicle: saline with Tween-80",0 of 6
same,survivor count,"dose: 21.0 mg/kg/injection, schedule: Q04DX003 (ip), vehicle: saline with Tween-80",4 of 6
CCCCCCC(=O)NC1=C(N2CC2)C(=O)C(NC(=O)CCCCCC)=C(N2CC2)C1=O,T/C,[3],141 % of control
same,survivor count,[2],6 of 6
Cc1cc(Cl)n[nH]1,survivor count,[5],7 of 7
same,survivor count,[6],5 of 7
Cc1nc(N)c(Cl)nc1C,T/C,[7],127 % of control
same,survivor count,[7],6 of 6
same,survivor count,[8],6 of 6
CS(=O)(=O)Nc1ccc(Nc2c3ccccc3nc3cc(Cl)ccc23)cc1,T/C,"dose: 22.0 mg/kg/injection, schedule: Q04DX003 (ip), vehicle: Klucel (hydroxypropylcellulose) (HPC)",140 % of control [5 of 6 alive]
same,T/C,"dose: 33.0 mg/kg/injection, schedule: Q04DX003 (ip), vehicle: Klucel (hydroxypropylcellulose) (HPC)",145 % of control
same,survivor count,"dose: 300.0 mg/kg/injection, schedule: Q04DX003 (ip), vehicle: saline",5 of 6
C=CCc1ccccc1CNC(C)(C)CO,survivor count,[9],0 of 6
COc1ccc2nc3cc(Cl)ccc3c(NCCCNCCCCNCCCNc3c4ccc(Cl)cc4nc4ccc(OC)cc34)c2c1,survivor count,"dose: 5.0 mg/kg/injection, schedule: Q01DX009 (ip), vehicle: saline with Tween-80",5 of 6
same,survivor count,"dose: 10.0 mg/kg/injection, schedule: Q01DX009 (ip), vehicle: saline with Tween-80",1 of 6
O=C(O)CCN1C(=O)c2ccccc2C1=O,survivor count,[10],4 of 6
COc1cccc2c1C(=O)c1c(O)c3c(c(O)c1C2=O)CC(O)(/C(C)=N\NC(=O)N/N=C(\C)C1(O)Cc2c(O)c4c(c(O)c2C(OC2CC(N)C(O)C(C)O2)C1)C(=O)c1c(OC)cccc1C4=O)CC3OC1CC(N)C(O)C(C)O1 (stereo not drawn),T/C,"dose: 25.0 mg/kg/injection, schedule: Q04DX003 (ip), vehicle: water",142 % of control
O=C(NN=C1CCCCC1)c1ccccc1,survivor count,[2],2 of 6
same,survivor count,"dose: 335.0 mg/kg/injection, schedule: Q04DX003 (ip), vehicle: Klucel (hydroxypropylcellulose) (HPC)",2 of 6
C[n+]1cccc2c3ccccc3c(-c3ccccc3)cc21,T/C,"dose: 0.78 mg/kg/injection, schedule: Q01DX009 (ip), vehicle: water",128 % of control
same,T/C,"dose: 12.5 mg/kg/injection, schedule: Q01DX009 (ip), vehicle: water",137 % of control
same,survivor count,"dose: 25.0 mg/kg/injection, schedule: Q01DX009 (ip), vehicle: water",5 of 6
same,survivor count,"dose: 50.0 mg/kg/injection, schedule: Q01DX009 (ip), vehicle: water",0 of 6
same,survivor count,"dose: 50.0 mg/kg/injection, schedule: Q04DX003 (ip), vehicle: water",0 of 6
same,survivor count,"dose: 100.0 mg/kg/injection, schedule: Q01DX009 (ip), vehicle: water",0 of 6
O=c1c2ccccc2nc(-c2ccccc2Cl)n1/N=C/c1cccc([N+](=O)[O-])c1,survivor count,[5],6 of 6
NC(=O)c1ccc(C(N)=O)cc1,survivor count,[6],6 of 6
same,survivor count,[9],3 of 6
same,survivor count,[10],0 of 6
C=C(C)C(=O)OC1CC2(C)OC2CC(OC(C)=O)/C(C)=C/C2OC(=O)C(=C)C21 (stereo not drawn),T/C,"dose: 22.5 mg/kg/injection, schedule: Q01DX009 (ip), vehicle: saline",131 % of control
same,T/C,"dose: 45.0 mg/kg/injection, schedule: Q01DX009 (ip), vehicle: saline",131 % of control
same,survivor count,"dose: 90.0 mg/kg/injection, schedule: Q01DX009 (ip), vehicle: saline",1 of 4
O=C(C=C(C(F)(F)F)C(F)(F)F)c1ccco1,survivor count,"dose: 25.0 mg/kg/injection, schedule: Q01DX009 (ip), vehicle: saline with Tween-80",0 of 6
NCC(=O)NC(CCCCNC(=O)OCc1ccccc1)C(=O)O (stereo not drawn) (H-Gly-[ξK](Cbz)-OH),survivor count,"dose: 50.0 mg/kg/injection, schedule: Q01DX005 (ip), vehicle: saline with Tween-80",0 of 5
Oc1ccc(Cl)c2cccnc12,survivor count,"dose: 100.0 mg/kg/injection, schedule: Q01DX010 (ip), vehicle: carboxymethylcellulose (CMC)",2 of 6
C=CCN1c2ccccc2Sc2cnccc21,survivor count,[10],1 of 6
Cc1nc2nc(N)nc(N)c2nc1C,survivor count,[8],3 of 6
Nc1cc(S(N)(=O)=O)ccc1SSc1ccc(S(N)(=O)=O)cc1N,T/C,"dose: 400.0 mg/kg/injection, schedule: Q01DX009 (ip), vehicle: saline",136 % of control
COC(=O)C[C@](O)(CCC(C)C)C(=O)O[C@@H]1C(OC)=C[C@]23CCCN2CCc2cc4c(cc2[C@H]13)OCO4,T/C,"dose: 0.5 mg/kg/injection, schedule: Q01DX010 (ip), vehicle: saline",127 and 145 % of control
same,T/C,"dose: 4.0 mg/kg/injection, schedule: Q01DX010 (ip), vehicle: saline",140 % of control
